These results are taken from PubChem BioAssay AID328 (DTP/NCI, 2004).

The assay has as its system BDF1 mice, P388 leukemia ip, median survival T/C. As to the kind of experiment: NCI In Vivo Anticancer Drug Screen. Data for tumor model P388 Leukemia (intraperitoneal) in B6D2F1 (BDF1) mice. Conditions: T/C endpoint: median survival time, higher T/C = longer survival. In outline:
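Steps: implant the tumour, treat one group with compound and another with vehicle, record survival, then divide treated by control.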

The mark [1] stands for this setting: dose: 200.0 mg/kg/injection, schedule: Q01DX009 (ip), vehicle: Klucel (hydroxypropylcellulose) (HPC).
[2] abbreviates: dose: 100.0 mg/kg/injection, schedule: Q01DX009 (ip), vehicle: saline with Tween-80.
Where [3] appears, read: dose: 200.0 mg/kg/injection, schedule: Q01DX009 (ip), vehicle: saline with Tween-80.
The mark [4] stands for this setting: dose: 400.0 mg/kg/injection, schedule: Q01DX009 (ip), vehicle: saline with Tween-80.
[5] abbreviates: dose: 400.0 mg/kg/injection, schedule: Q04DX003 (ip), vehicle: saline.
[6] abbreviates: dose: 400.0 mg/kg/injection, schedule: Q04DX003 (ip), vehicle: saline with Tween-80.
Setting [7] is: dose: 100.0 mg/kg/injection, schedule: Q01DX009 (ip), vehicle: water.
[8] abbreviates: dose: 200.0 mg/kg/injection, schedule: Q01DX009 (ip), vehicle: water.

Structures are written as SMILES. The list shows only some results of the screen, not a fair sample: it gathers tests that were run many times, whatever their T/C, doses with no T/C, and many T/C values between a quarter and a half above the control. Other doses and runs of a compound stand elsewhere. T/C gives the treated animals as a percentage of the vehicle group. Some entries give survivors of the animals treated and no T/C: the source files T/C as zero there, which appears to mark a toxic dose or a test without result, not a measured value. Some doses without a T/C left all or most animals alive at the check, yet need not have been tolerated: survival well below the control is almost never listed, so the zero probably covers shortened survival too. Survivors were counted at the toxicity check, usually on the fifth day, unless a day is given; later deaths do not show. Schedules are NCI's codes, taken here to give the interval after Q, in days (D) or hours (H), and the number of doses after X. For survival time, this PubChem deposit counts one and a half times the control or more as active, and values a quarter to a half above the control carry no call in these data; other NCI protocols may use other cut-offs. Some entries hold several experiments; the values are given in rising order. Some T/C values carry the count of animals alive at the toxicity check (mostly the fifth day); where none is given, no animal had died by that day.

In the case of `CCC(=O)OC1CC2C3CCC4=CC(=O)CCC4(C)C3CCC2(C)C1OC(=O)CC` (stereo not given), the survivor count reads like this: (dose: 100.0 mg/kg/injection, schedule: Q01DX009 (ip), vehicle: Klucel (hydroxypropylcellulose) (HPC)) 6 of 6; under setting [1], 6 of 6.
`CCc1cc2c(cc1C(=O)/C=C\C(=O)O)C(C)(C)CCC2(C)C`: the survivor count (dose: 20.0 mg/kg/injection, schedule: Q01DX009 (ip), vehicle: Klucel (hydroxypropylcellulose) (HPC)) is on record as 0 of 6.
Regarding `O=Cc1ccccc1B(O)O`, under setting [1], the T/C is 136 % of control and the survivor count is on record as 0 of 6.
As to `O=C1NC(=O)C2C3C=CC(C12)C1C2C(=O)NC(=O)C2C31` (stereo not given), the T/C (dose: 25.0 mg/kg/injection, schedule: Q01DX009 (ip), vehicle: saline with Tween-80) was 137 % of control. In addition, the survivor count is, setting by setting: under setting [2], 6 of 6; under setting [3], 2 of 6; under setting [4], 0 of 6.
On to `O/N=c1/cc(-c2ccc(Cl)cc2)ss1`, for which the T/C runs as follows: (dose: 50.0 mg/kg/injection, schedule: Q01DX009 (ip), vehicle: saline) 131 % of control; (dose: 200.0 mg/kg/injection, schedule: Q04DX003 (ip), vehicle: saline) 130 % of control; under setting [5], 130 % of control. In addition, the survivor count under setting [5] was 3 of 6 and the survivor count (dose: 500.0 mg/kg/injection, schedule: Q04DX003 (ip), vehicle: saline) is reported as 4 of 6.
Regarding `CCOC(=O)/C(C#N)=N\O`, the survivor count (dose: 100.0 mg/kg/injection, schedule: Q01DX009 (ip), vehicle: saline) is listed as 2 of 6.
Take `CC(C)C1C(=O)N2CCCC2C2(O)OC(NC(=O)C3C=C4c5cccc6[nH]cc(c56)CC4N(C)C3)(C(C)C)C(=O)N12` (stereo not given): the survivor count is reported as 6 of 6 (dose: 25.0 mg/kg/injection, schedule: Q01DX009 (ip), vehicle: Klucel (hydroxypropylcellulose) (HPC)); 5 of 7 (dose: 200.0 mg/kg/injection, schedule: Q01DX009 (ip), vehicle: saline); 1 of 7 (dose: 400.0 mg/kg/injection, schedule: Q01DX009 (ip), vehicle: saline). In addition, the T/C (dose: 100.0 mg/kg/injection, schedule: Q04DX003 (ip), vehicle: saline) is 125 % of control.
For `O=c1c(Br)cccc(CN2CCOCC2)c1O`, the survivor count is on record as 6 of 6 (dose: 100.0 mg/kg/injection, schedule: Q04DX002 (ip), vehicle: saline with Tween-80) and 3 of 6 (dose: 200.0 mg/kg/injection, schedule: Q04DX002 (ip), vehicle: saline with Tween-80).
Turning to `Nc1ccccc1-c1ccccc1N`, the survivor count (dose: 400.0 mg/kg/injection, schedule: Q04DX003 (ip), vehicle: Klucel (hydroxypropylcellulose) (HPC)) is 2 of 6.
For the compound `CNC(=O)OCc1c(COC(=O)NC)c(-c2ccc(F)cc2)n2c1CCC2`, the T/C (dose: 0.78 mg/kg/injection, schedule: Q01DX009 (ip), vehicle: Klucel (hydroxypropylcellulose) (HPC)) was 146 % of control; the T/C (dose: 3.13 mg/kg/injection, schedule: Q01DX009 (ip), vehicle: Klucel (hydroxypropylcellulose) (HPC)) was 141 % of control; the T/C (dose: 6.25 mg/kg/injection, schedule: Q01DX009 (ip), vehicle: Klucel (hydroxypropylcellulose) (HPC)) is 137 % of control; the T/C (dose: 12.5 mg/kg/injection, schedule: Q01DX009 (ip), vehicle: Klucel (hydroxypropylcellulose) (HPC)) is 128 % of control [5 of 6 alive].
`O=C(CC(NC(=O)OCc1ccccc1)C(=O)O)OCc1ccccc1` (stereo not given): under “dose: 176.0 mg/kg/injection, schedule: Q04DX003 (ip), vehicle: saline with Tween-80”, the T/C is 127 % of control.
Turning to `COc1cc(-c2nc3ccccc3c(=O)o2)cc(OC)c1OC`, under setting [6], the survivor count is given as 1 of 6.
As to `CCCC[N+](CCCC)=c1cc(-c2ccc(Cl)cc2)ss1`, the survivor count was 2 of 6 (dose: 50.0 mg/kg/injection, schedule: Q01DX009 (ip), vehicle: water); 2 of 6 (dose: 200.0 mg/kg/injection, schedule: Q04DX003 (ip), vehicle: water); 1 of 6 (dose: 300.0 mg/kg/injection, schedule: Q04DX003 (ip), vehicle: water).
In the case of `Cn1cc(/C=C/C(N)=O)c2nccnc21`, the survivor count is given as 2 of 6 under setting [7] and 0 of 6 under setting [8].
Turning to `N#C/C(=C\c1ccc(O)cc1)c1ccc([N+](=O)[O-])cc1`, the survivor count was 1 of 6 (dose: 200.0 mg/kg/injection, schedule: Q01DX001 (ip), vehicle: saline with Tween-80) and 0 of 6 (dose: 400.0 mg/kg/injection, schedule: Q01DX001 (ip), vehicle: saline with Tween-80).
For the compound `CC[N+](CC)(CC)CCC[N+](CC)(CC)CC`, the survivor count is 6 of 6 (dose: 25.0 mg/kg/injection, schedule: Q01DX009 (ip), vehicle: water); 1 of 6 under setting [8]; 2 of 6 (dose: 400.0 mg/kg/injection, schedule: Q04DX003 (ip), vehicle: water). Also, the T/C under setting [7] is 126 % of control.
Regarding `O=P(Oc1ccc(OP(=O)(N2CC2)N2CC2)cc1)(N1CC1)N1CC1`, the survivor count (dose: 600.0 mg/kg/injection, schedule: Q04DX003 (ip), vehicle: saline with Tween-80) is 1 of 6.
Consider `C(=NC(c1ccccc1)(c1ccccc1)c1ccccc1)=NC(c1ccccc1)(c1ccccc1)c1ccccc1`, for which the survivor count is 6 of 6 (dose: 50.0 mg/kg/injection, schedule: Q01DX009 (ip), vehicle: gum acacia) and 6 of 6 (dose: 400.0 mg/kg/injection, schedule: Q04DX003 (ip), vehicle: gum acacia).
With `COc1cc2c(c(OC)c1OC)-c1ccc(O)cc1[C@@H](NC(C)=O)CC2`, the survivor count is reported as 6 of 6 (dose: 17.5 mg/kg/injection, schedule: Q01DX010 (ip), vehicle: other) and 6 of 6 (dose: 35.0 mg/kg/injection, schedule: Q01DX010 (ip), vehicle: other).
Regarding `O=C1NC(=O)C2(CCCc3ccc(N(CCCl)CCCl)cc32)N1` (stereo not given), for the setting “dose: 3.13 mg/kg/injection, schedule: Q04DX003 (ip), vehicle: saline with Tween-80”, the T/C is 145 % of control. Further, the survivor count under setting [6] is recorded as 2 of 6.
In the case of `FC(F)(F)/C([S-])=C(/[S-])C(F)(F)F.FC(F)(F)/C([S-])=C(/[S-])C(F)(F)F.FC(F)(F)/C([S-])=C(/[S-])C(F)(F)F.FC(F)(F)/C([S-])=C(/[S-])C(F)(F)F.[Co+3].[Co+3]`, the T/C (dose: 50.0 mg/kg/injection, schedule: Q04DX003 (ip), vehicle: other) is 140 % of control.
`CS(=O)(=O)N(CC(=O)O)Cc1ccc(Cl)c(Cl)c1`: the T/C (dose: 100.0 mg/kg/injection, schedule: Q04DX003 (ip), vehicle: other) is 126 % of control.
In the case of `C[n+]1c2ccccc2nc2c(N)cc(N)cc21`, the T/C reads like this: (dose: 11.0 mg/kg/injection, schedule: Q01DX009 (ip), vehicle: saline with Tween-80) 126 and 144 % of control; (dose: 17.0 mg/kg/injection, schedule: Q01DX009 (ip), vehicle: saline with Tween-80) 133 % of control; (dose: 26.0 mg/kg/injection, schedule: Q01DX009 (ip), vehicle: saline with Tween-80) 140 % of control; (dose: 40.0 mg/kg/injection, schedule: Q01DX009 (ip), vehicle: saline with Tween-80) 145 % of control. The survivor count (dose: 60.0 mg/kg/injection, schedule: Q01DX009 (ip), vehicle: saline with Tween-80) is 6 of 6; the survivor count (dose: 62.0 mg/kg/injection, schedule: Q01DX009 (ip), vehicle: saline with Tween-80) is recorded as 3 of 6; the survivor count (dose: 62.0 mg/kg/injection, schedule: Q01DX009 (ip), vehicle: water) is 3 of 6; the survivor count (dose: 93.0 mg/kg/injection, schedule: Q01DX009 (ip), vehicle: saline with Tween-80) is listed as 0 of 6; the survivor count (dose: 93.0 mg/kg/injection, schedule: Q01DX009 (ip), vehicle: water) was 0 of 6.
On to `Cc1ccc(C(=O)N(O)c2ccccc2)cc1`, for which, under setting [4], the survivor count is listed as 5 of 6.
For the compound `C=CCOc1ccccc1N/N=C(\Cl)C(=O)OCC`, the T/C under setting [2] was 135 % of control [5 of 6 alive]. For the same compound, under setting [3], the survivor count is 0 of 6.
